# Experimental data reported in PubChem BioAssay AID2517 (National Center for Advancing Translational Sciences (NCATS), 2010).
# Protein sequences, listed by entry. Tags and fused reporters are not part of them.
# UniProt P27695, whole entry, looked up: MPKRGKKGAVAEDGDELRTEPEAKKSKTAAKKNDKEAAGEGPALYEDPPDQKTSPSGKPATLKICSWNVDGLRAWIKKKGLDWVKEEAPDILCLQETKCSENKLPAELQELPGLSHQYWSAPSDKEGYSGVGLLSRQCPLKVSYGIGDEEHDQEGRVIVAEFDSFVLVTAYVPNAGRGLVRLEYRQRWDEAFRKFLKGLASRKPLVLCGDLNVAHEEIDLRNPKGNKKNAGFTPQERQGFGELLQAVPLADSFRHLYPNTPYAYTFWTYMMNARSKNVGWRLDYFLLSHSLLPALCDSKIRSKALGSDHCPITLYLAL
# Hit rate of the full screen: of about 350,000 compounds, about 1,200 (0.34%) were called active. The inconclusive results got no clear call from the source; some entries with a clear call stand among them for comparison. Calls come from the whole dose curve; as a rule, active = well fitted inhibition curve with a large enough effect; inconclusive = small, poorly fitted or top-dose-only effect; inactive = no such curve, though single readings can be large or run the other way. A potency beside an inconclusive call is a rough fit, not a confirmed value.
# Target: DNA repair nuclease/redox regulator APEX1 (Homo sapiens) (UniProt P27695)
# Assay: qHTS Assay for Inhibitors of the Human Apurinic/apyrimidinic Endonuclease 1 (APE1); note: nearly all actives have a fitted effect of over 55% in size
# Conditions: recombinant APE1, TAMRA/BHQ-2 abasic DNA cleavage fluorescence; series mostly up to 65.8 µM
# Summary of the method: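 Endonuclease cleavage of a quenched abasic-site DNA duplex (50 nM) by APE1 (0.75 nM) was tracked by TAMRA dequenching. Compounds were preincubated with enzyme 15 min at room temperature; data normalized to buffer-only and DMSO wells plus NSC13755 control.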
# Potency is the fitted concentration of half-maximal effect.
row,SMILES,Potency
1,C/C=C\C(=O)Nc1cccc(C2=NOC3(C2)C[C@@H](C(N)=O)N(C(=O)CC(c2ccccc2)c2ccccc2)C3)c1 (stereo partly specified),"inconclusive: 20 µM [inhibitor, single point]"
2,CCN(CC)P(=O)(Nc1ccc(C)cc1Br)c1ccc(N(C)C)cc1NC(=O)c1ccco1 (stereo unspecified),"inconclusive: 1 µM [inhibitor, full curve, poor fit]"
3,N#C/C(=N\Nc1ccc(Br)cc1)C(=N)N1CCOCC1,"inconclusive: 4.47 µM [inhibitor, single point]"
4,COC(=O)C(Cc1ccc(OC(=O)c2ccc(C)cc2)cc1)N1Cc2ccccc2C1=O (stereo unspecified),"inconclusive: 50.1 µM [inhibitor, partial curve, poor fit]"
5,OCc1cc(-c2ccc(Cl)c(Cl)c2)on1,"inconclusive: 22.4 µM [inhibitor, single point]"
6,Cc1ccc(-c2nn(-c3ccccc3)cc2/C=C2\SC(=S)N(CCCCCC(=O)O)C2=O)o1,inactive
7,Cc1ccccc1-c1ccc(/C=C2/SC(N3CCOCC3)=NC2=O)o1,inactive
8,CCOC(=O)OCC1OC(c2ccccc2)C=CC1Oc1ccc(F)cc1C (stereo unspecified),"inconclusive: 0.398 µM [inhibitor, full curve, poor fit]"
9,O=C(CCN1C(=O)/C(=C/c2ccc(Cl)cc2)SC1=S)Nc1ccc(C(=O)O)cc1,"inconclusive: 26.7 µM [inhibitor, single point]"
10,O=C(CN1C(=O)/C(=C\c2ccco2)SC1=S)Nc1ccc(O)cc1C(=O)O,inactive
11,CCOc1cc([N+](=O)[O-])cc(/C=C2/NC(=O)N(Cc3ccccc3F)C2=O)c1O,"inconclusive: 39.8 µM [inhibitor, single point]"
12,O=C(NCCO)c1cc2ccccc2cc1O,"inconclusive: 44.7 µM [inhibitor, partial curve, poor fit]"
13,O=C(CSc1nc2ccc(Cl)cc2[nH]1)c1ccc2c(c1)OCO2,inactive
14,O=C(O)CCc1ccc(S(=O)(=O)Nc2cc(C(F)(F)F)ccc2N2CCCC2)cc1,"inconclusive: 21.2 µM [inhibitor, single point]"
15,COc1ccc2[nH]cc(CCNc3nc(-c4cccnc4)nc4ccccc34)c2c1,inactive
16,CCC1=NN2C(=N)/C(=C\c3cccn3-c3ccc(OC)cc3)C(=O)N=C2S1,inactive
17,CC(C)C(O)(C(=O)NNc1ccccc1)C(C)C,inactive
18,c1ccc(-c2cc(-c3nn4c(-c5ccco5)nnc4s3)c3ccccc3n2)cc1,"inconclusive: 7.94 µM [inhibitor, single point]"
19,CNC(=O)C(=O)NCCc1ccc(Cl)cc1,"inconclusive: 17.8 µM [inhibitor, partial curve]"
20,Cc1nn(CC(=O)c2ccccc2Cl)c(C)c1[N+](=O)[O-],"inconclusive: 44.7 µM [inhibitor, single point]"
21,CC1CCCCC1N1CCN(C(=O)c2cccc(F)c2)CC1 (stereo unspecified),"inconclusive: 0.562 µM [inhibitor, full curve, poor fit]"

row,SMILES,Potency
1,CCNc1nc(NCC)n2c(SCC(=O)Nc3ccc(Br)cc3F)nnc2n1,"inconclusive: 0.134 µM [inhibitor, full curve, poor fit]"
2,COCCNC(C(=O)Nc1ccc([N+](=O)[O-])cc1Br)c1ccccc1 (stereo unspecified),inactive
3,CCCC(C(=O)N1CCOCC1)N1C(=O)C2C3C=CC(C3)C2C1=O (stereo unspecified),"inconclusive: 22.4 µM [inhibitor, single point]"
4,CC(=O)N1CSCC1C(=O)NNS(=O)(=O)c1cccc(C(F)(F)F)c1 (stereo unspecified),"inconclusive: 25.1 µM [inhibitor, single point]"
5,O=C(O)CCC(=O)N(Cc1cccs1)Cc1cccs1,"inconclusive: 15.8 µM [inhibitor, partial curve]"
6,CCCN1CCC(=O)N(C(CSc2ccc(Br)cc2)CC(C)C)CC1 (stereo unspecified),inactive
7,Cc1ccc(Cn2nc(C)cc2C(=O)Nc2ccc(Cl)cc2)cc1,"inconclusive: 7.08 µM [inhibitor, single point]"
8,CCN(CC)CCCCNc1ncc2cc(-c3cc(OC)cc(OC)c3)c(NC(=O)NC(C)(C)C)nc2n1,"inconclusive: 0.794 µM [inhibitor, partial curve]"
9,CC(C)NC(=O)c1cc(-n2cnnc2)ccc1Cl,inactive
10,CC(C)CCCC(C)C1CCC2C3CC=C4CC(=O)CC[C@@]4(C)C3CC[C@@]12C (stereo partly specified),"inconclusive: 20 µM [inhibitor, single point]"
11,CC(C)c1ccc(NC(=O)C(=O)C2C(=O)Nc3ccccc32)cc1 (stereo unspecified),"inconclusive: 1.41 µM [inhibitor, full curve, poor fit]"
12,COc1cccc(/C(O)=C2/C(=O)C(=O)N(Cc3cccnc3)C2c2ccco2)c1 (stereo unspecified),"inconclusive: 39.8 µM [inhibitor, single point]"
13,COc1ccc(/C(N)=N/OC(=O)Cc2ccccc2[N+](=O)[O-])cc1,"inconclusive: 35.5 µM [inhibitor, single point]"
14,c1ccc2c(NCCc3c[nH]c4ccccc34)c3ccccc3nc2c1,"inconclusive: 18.9 µM [inhibitor, partial curve]"
15,O=C(O)COc1cccc2nsnc12,inactive
16,COc1cccc(C(=O)Nc2ccc(NC(=O)C3CCCCC3C(=O)O)cc2)c1 (stereo unspecified),"inconclusive: 5.32 µM [inhibitor, single point]"
17,O=C1NC(=O)/C(=C/c2cc3c(cc2Br)OCO3)S1,inactive
18,O=C(CCCN1C(=O)S/C(=C\C=C\c2ccccc2)C1=O)Nc1ccc(C(=O)O)cc1,inactive
19,Cc1ccc(CNc2nc3ccccc3s2)s1,"inconclusive: 22.4 µM [inhibitor, single point]"
20,Cc1ccc(S(=O)(=O)N2[C@@H](c3ccc(Br)cc3)C(C(=O)O)=CC[C@H]2c2ccc(Cl)c(Cl)c2)cc1,inactive
21,CC(=O)N1CCOc2ccc(S(=O)(=O)NCc3ccc(F)cc3)cc21,"inconclusive: 23.8 µM [inhibitor, single point]"

# Given bar-delimited: two of the compounds above
row | SMILES | Potency
3 | CCCC(C(=O)N1CCOCC1)N1C(=O)C2C3C=CC(C3)C2C1=O (stereo unspecified) | inconclusive: 22.4 µM [inhibitor, single point]
4 | CC(=O)N1CSCC1C(=O)NNS(=O)(=O)c1cccc(C(F)(F)F)c1 (stereo unspecified) | inconclusive: 25.1 µM [inhibitor, single point]

# Additional results.

row,SMILES,Potency
1,O=C1/C(=C/c2ccccn2)SC(=S)N1Cc1ccccc1,"inconclusive: 7.08 µM [inhibitor, full curve]"
2,CO[C@H]1COC(=O)[C@H](C)NC(=O)C/C=C\[C@@H](C)[C@@H](NS(=O)(=O)c2ccc(C)cc2)COC(=O)[C@H](OCc2ccccc2)/C=C\[C@@H]1C,"inconclusive: 3.98 µM [inhibitor, single point]"
3,O=C(Nc1cccc([N+](=O)[O-])c1)c1cccc(C(=O)Nc2cccc([N+](=O)[O-])c2)c1,"inconclusive: 29.9 µM [inhibitor, partial curve]"
4,COc1ccccc1CNC(=S)Nc1cc(C)ccc1C,"inconclusive: 28.2 µM [inhibitor, single point]"
5,CC[C@H](C)[C@H](NC(=O)[C@H](C)NC(=O)[C@H](Cc1cnc[nH]1)NC(=O)[C@@H]1CCCN1C(=O)CNC(=O)[C@H](CC(C)C)NC(=O)[C@H](CC(C)C)NC(=O)[C@H](Cc1ccc(O)cc1)NC(=O)CNC(=O)[C@H](C)NC(=O)[C@H](CO)NC(=O)[C@H](CC(N)=O)NC(=O)[C@H](CC(C)C)NC(=O)[C@@H](NC(=O)[C@H](Cc1c[nH]c2ccccc12)NC(=O)CN)[C@@H](C)O)C(=O)N[C@@H](CC(=O)O)C(=O)N[C@@H](CC(N)=O)C(=O)N[C@@H](Cc1cnc[nH]1)C(=O)N[C@@H](CCCNC(=N)N)C(=O)N[C@@H](CO)C(=O)N[C@@H](Cc1ccccc1)C(=O)N[C@@H](CO)C(=O)N[C@@H](CC(=O)O)C(=O)N[C@@H](CCCCN)C(=O)N[C@@H](Cc1cnc[nH]1)C(=O)NCC(=O)N[C@@H](CC(C)C)C(=O)N[C@H](C(N)=O)[C@@H](C)O,inactive
6,CCN1CCN(S(=O)(=O)c2cccc3nsnc23)CC1,"inconclusive: 25.1 µM [inhibitor, partial curve, poor fit]"
7,O=C(OCn1nnc2ccccc2c1=O)c1ccco1,"inconclusive: 5.01 µM [inhibitor, full curve, poor fit]"
8,CNC(=O)[C@H]1O[C@H](n2cnc3c(NCc4cccc(I)c4)nc(Cl)nc32)[C@@H](O)[C@@H]1O,"inconclusive: 44.7 µM [inhibitor, single point]"
9,Oc1ccc(/C=N/Nc2ncnc3c2ncn3Cc2ccccc2)cc1O,"inconclusive: 3.16 µM [inhibitor, partial curve, poor fit]"
10,O=C1C(C=Nc2ccccc2O)=C(O)c2ccccc21,inactive
11,C(=C\c1ccncc1)/c1ccccc1,"inconclusive: 0.199 µM [inhibitor, full curve, poor fit]"
12,Cc1ccc(S(=O)(=O)N(C)CCCC(=O)Nc2cc(C)ccc2C)cc1,"inconclusive: 3.16 µM [inhibitor, single point]"
13,CCOC(=O)c1c(NC(=O)CSc2nnc(CNc3ccc(Cl)cc3)o2)sc(C)c1C,"inconclusive: 12.6 µM [inhibitor, single point]"
14,O=C(O)C1CCN(c2nc(-c3ccccc3)nc3c2oc2ccccc23)CC1,"inconclusive: 20 µM [inhibitor, partial curve, poor fit]"
15,S=c1[nH]nc(-c2ccccn2)n1/N=C/c1ccccc1,inactive
16,O=C(COC(=O)CCC1CCCC1)Nc1ccccc1Sc1ccccc1,"inconclusive: 35.5 µM [inhibitor, single point]"
17,COc1cccc(-c2nc(NC3CCNCC3)c3ccccc3n2)c1,inactive
18,CNC(=O)C1CC(=O)N(Cc2ccc3c(c2)OCO3)C(=Nc2ccc(OC)cc2)S1 (stereo unspecified),"inconclusive: 0.005 µM [inhibitor, full curve, poor fit]"
19,CCOc1cc(/C=C2\NC(=O)NC2=O)cc([N+](=O)[O-])c1O,inactive
